Measured values from patent publication US6723235B2, “Apparatus for screening compound libraries” (priority 1998, dated 2004).
Some entries share one result that the patent states for a list of compounds. At least one structure is not confirmed: it was looked up by name or label, or the drawing left a doubt.

Protein sequences, listed by entry. Tags and fused reporters are not part of them. Residues count along the entry.
UniProt P01556, 22-124 limits assumed: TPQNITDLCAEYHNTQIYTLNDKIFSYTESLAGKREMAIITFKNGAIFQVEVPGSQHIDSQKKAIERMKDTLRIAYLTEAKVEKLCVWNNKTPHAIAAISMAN

The compounds below were run against cholera toxin B subunit (Vibrio cholerae serotype O1, UniProt P01556).
Format: binding
For `COC(=O)CCCCCCCCO[C@@H]1O[C@H](CO)[C@H](O)[C@H](O[C@H]2O[C@H](CO)[C@H](O)[C@H](O)[C@H]2NC(C)=O)[C@H]1O` [compound 1, αGalNAc(1→3)βGal-OGr], the “affinity for cholera toxin B subunit” value was “little or no affinity for cholera toxin B subunit” and the “break through relative to void volume” value was “broke through in the void volume of the system”.
`COC(=O)CCCCCCCCO[C@@H]1O[C@H](CO)[C@H](O)[C@H](O[C@H]2O[C@H](CO)[C@H](O)[C@H](O)[C@H]2O)[C@H]1O[C@@H]1O[C@@H](C)[C@@H](O)[C@@H](O)[C@@H]1O` [compound 2, αGal (1→3)[αFuc(1→2)]βGal-OGr] was tested, and the “affinity for cholera toxin B subunit” value was “little or no affinity for cholera toxin B subunit” and the “break through relative to void volume” value was “broke through in the void volume of the system”.
In the case of `COC(=O)CCCCCCCCOC1OC(COC2OC(CO)C(O)C(O)C2O)C(O)C(OC2OC(CO)C(O)C(O)C2O)C1O` (stereo not drawn) [compound 3, αMan(1→3)[αMan(1→6)]βMan-OGr], the “affinity for cholera toxin B subunit” value is reported as “little or no affinity for cholera toxin B subunit” and the “break through relative to void volume” value is reported as “broke through in the void volume of the system”.
